The other results are listed elsewhere or left out. Further columns of the screen follow, without active or inactive calls. The list favours compounds with an active or inconclusive main result. The note in brackets gives the kind of curve behind each potency; many fits are weak.

This test in a line: qHTS Assay to Find Inhibitors of Chronic Active B-Cell Receptor Signaling. To be noted: ABC-DLBCL IkBa-CBG/CBR reporter, luminescence ratio (green luciferase fused to IkBa over red control in TMD8 lymphoma cells), 4 h. Put shortly:
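Doxycycline induced both beetle luciferases in TMD8 lymphoma cells; IKK-driven degradation limits the IkappaBalpha-fused green signal, while red luminescence normalises for cell number and nonspecific effects. Compounds tested up to 46 uM, 4 hrs.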
(In qHTS, concentration-response curves come from the screen itself.)

[1] abbreviates: measured here: CBR red luminescence, cell number.
The mark [2] stands for this setting: measured here: IkBa-CBG green luminescence.

With `CC(C)CN1C(=O)/C(=C/c2c(N3CCc4ccccc4C3)nc3ccccn3c2=O)SC1=S`, the AC50 (in general, the midpoint of the concentration-response curve, whichever way the signal moves) under setting [1] is 12.6 µM [rising, single point]. Same read-out and setting: the result for `O=C(N/N=C/c1ccc(O)cc1O)c1ccc(CN2C(=O)c3cccc4cccc2c34)cc1` reads 8.91 µM [falling, partial curve]; that for `CC(C)CN(CC(C)C)C(=O)Nc1cccc([N+](=O)[O-])c1`, 11.2 µM [rising, partial curve, poor fit]. For the compound `O=S(=O)(Cc1cc(Cl)nc(-c2cccnc2)n1)c1ccccc1`, under setting [1], the half-maximal activity concentration (AC50) is 11.2 µM [falling, partial curve, poor fit]. As for `O=C(COc1ccc(S(=O)(=O)NC2CCCCC2)cc1Cl)Nc1ccc2c(c1)OCO2`, under setting [1], the half-maximal activity concentration (AC50) is 29.1 µM [falling, single point]. Same read-out and setting: the result for `O=Nc1[nH]c(=O)c(/C=C(\O)c2ccccc2)nc1NO` reads 31.6 µM [falling, single point]. The same measure, in the same setting: then `O=C(Nc1ccccc1)Nc1cc(OCC(F)(F)F)cc(OCC(F)(F)F)c1`, with 0.082 µM [rising, full curve, poor fit]. Still for that read-out and setting: the result for `Cn1cccc1/C=N/NC(=O)C(O)c1ccccc1` (stereo not given) reads 12.6 µM [falling, partial curve]. Regarding `CC(C)c1ccc2[nH]c3nc(SCC(=O)NC4CC4)nnc3c2c1`, the AC50 under setting [1] was 5.62 µM [rising, partial curve, poor fit]. Same read-out and setting: then `Cc1cc(C)nc(SCc2nnc(SCC(=O)Nc3ccc(Cl)c(C(F)(F)F)c3)o2)n1`, with 0.146 µM [rising, full curve, poor fit].

As for `COc1cccc(-c2ccc3c(N)c(C(=O)Nc4ccccc4C)sc3n2)c1`, the AC50 was 3.55 µM [falling, partial curve, poor fit] under setting [1] and 22.4 µM [rising, partial curve, poor fit] under setting [2]. For `C/C(=N/OC(=O)CC(C)C)c1cc(-c2ccc(Cl)cc2)no1`, the concentration at half-maximal activity (AC50) under setting [1] was 0.126 µM [rising, full curve, poor fit]. The same measure, in the same setting: then `Cc1ccc(-c2cc3nc(C)cc(NCc4ccco4)n3n2)cc1`, with 10 µM [falling, partial curve, poor fit].

As to `CCc1nnc(NS(=O)(=O)c2ccc(NC(=O)c3ccccc3C)cc2)s1`, under setting [1], the AC50 is 35.5 µM [falling, single point].

As to `O=C(NNC(=O)c1ccc(-c2ccc([N+](=O)[O-])cc2)o1)c1ccncc1`, under setting [1], the AC50 is 29.1 µM [rising, single point]. Same read-out and setting: then `COc1ccccc1CC(=O)Nc1nc(-c2ccc(F)c(F)c2)cs1`, with 14.1 µM [falling, partial curve]. Take `Cc1nc(NC(=O)c2cnccn2)ccc1Br`: the AC50 under setting [2] was 0.501 µM [falling, full curve, poor fit]. On to `O=[N+]([O-])c1ccc2c(c1)nc1n2CCN(c2ccccc2)C1`, for which the AC50 under setting [1] was 11.2 µM [falling, single point]. Regarding `O=C(CNS(=O)(=O)c1ccccc1)NCC(=O)OCc1ccccc1F`, the AC50 under setting [1] was 10.3 µM [rising, partial curve]. Still for that read-out and setting: the result for `Cc1ccc(C(=O)N2CCC3(CC2)Oc2ccc(F)cc2C(=O)C32CC(c3ccccc3)=NO2)s1` (stereo not given) reads 12.6 µM [falling, single point]. With `CCOC(=O)c1c(-c2ccccc2)oc2ccc(OCC(=O)NNC(=O)CCCC(=O)O)cc12`, under setting [2], the AC50 is 0.794 µM [rising, full curve, poor fit]. Take `COCCN1C(=O)C(=O)/C(=C(/O)c2ccc(S(=O)(=O)N3CCOCC3)cc2)C1c1cccc(Cl)c1` (stereo not given): the AC50 under setting [1] is 10 µM [rising, partial curve, poor fit].

Consider `Cc1nc2ccc([N+](=O)[O-])cc2c(=O)n1Cc1cccc(F)c1`, for which, under setting [1], the half-maximal activity concentration (AC50) was 10 µM [falling, single point].

As for `CCCCN(CC)CCCNC(=O)C1c2ccccc2C(=O)N(C)C1c1cn(C)c2ccccc12` (stereo not given), the AC50 under setting [1] was 16.4 µM [falling, single point].

As for `CCOC(=O)C1(CCCc2ccccc2)CCN(C(=O)CSC)CC1`, the concentration at half-maximal activity (AC50) under setting [1] is 1.12 µM [rising, full curve, poor fit]. For the compound `O=C1C2C3C=CC(C3)C2C(=O)N1c1ccc2ccccc2c1` (stereo not given), the concentration at half-maximal activity (AC50) under setting [1] is 0.447 µM [rising, full curve, poor fit]. With `C=CC[C@@H](Cc1ccc(F)cc1)C(=O)OC[C@@H]1CCCN1C(=O)[C@@H](CC=C)CC(=O)N(CCO)Cc1ccccc1`, the concentration at half-maximal activity (AC50) under setting [1] was 18.4 µM [falling, partial curve, poor fit].

For `CCOC(=O)/C(C#N)=C1/C=C(C)NC(c2ccccc2O)=N1`, the half-maximal activity concentration (AC50) under setting [1] was 0.58 µM [rising, full curve]. In the case of `O=C(Cc1ccccc1)N1CCC(c2ccccc2)C1` (stereo not given), under setting [1], the concentration at half-maximal activity (AC50) was 0.398 µM [rising, full curve, poor fit]. Still for that read-out and setting: the result for `Cn1ccnc1SCC(=O)Nc1ccc(Oc2ccccc2)cc1` reads 15.8 µM [falling, single point]; that for `COc1ccc2c(=O)c(C(=O)NCc3ccccc3)c[nH]c2c1`, 12.6 µM [falling, single point]; that for `Cc1ccc(OCC(=O)NNC(=O)c2ccccc2OCc2c(C)noc2C)cc1`, 23.1 µM [rising, single point]. Consider `N#CCCN(C(=O)COC(=O)CNS(=O)(=O)c1ccc2ccccc2c1)c1ccccc1`, for which the half-maximal activity concentration (AC50) under setting [1] was 6.51 µM [rising, full curve, poor fit]. The same measure, in the same setting: the result for `O=C(O)c1ccccc1NC(=O)C(Cc1ccccc1)N1C(=O)c2ccccc2C1=O` (stereo not given) reads 10 µM [rising, partial curve, poor fit]. The same measure, in the same setting: then `COc1nc(C)ccc1-c1noc(-c2cccs2)n1`, with 2.82 µM [rising, single point]; and `CCOC(=O)c1c(C)oc2c1c(C(c1ccccc1)N1CCOCC1)c(O)c1ccccc12` (stereo not given), with 5.17 µM [rising, partial curve, poor fit]. As for `CN(C)/C=N/C(=S)Nc1ccc(Cl)cc1`, the AC50 under setting [1] is 17.8 µM [rising, single point]. In the case of `CCc1cccc(C)c1NC(=O)CCCC(=O)O`, the AC50 under setting [1] was 2.06 µM [rising, full curve, poor fit]. On the same count and under the same terms, then `CN(Cc1ccccc1F)C(=O)CNC(=O)Cc1cccc2ccccc12`, with 12.6 µM [falling, partial curve, poor fit]; and `CC(C)Nc1nnc(SC(C)C(=O)N(C)C2CCCCC2)s1` (stereo not given), with 1.16 µM [rising, full curve, poor fit]. On the same count and under the same terms, the result for `O=C(Nc1ccc(N2CCOCC2)cc1)c1c(F)cccc1Cl` reads 3.16 µM [falling, full curve].

For the compound `Cc1ccccc1CS(=O)(=O)c1snnc1C`, the AC50 under setting [1] was 35.5 µM [rising, single point]. Take `CCC(C)NCCOc1cc(C)cc(C)c1C` (stereo not given): the AC50 under setting [1] is 11.2 µM [falling, partial curve, poor fit]. Regarding `Cc1nnc(SCC(=O)Nc2cccc(C(F)(F)F)c2)n1Cc1ccco1`, under setting [1], the AC50 is 3.98 µM [falling, partial curve, poor fit]. On the same count and under the same terms, the result for `Cc1onc(-c2ccccc2)c1C(=O)Nc1ccc(S(=O)(=O)Nc2nccs2)cc1` reads 2.82 µM [falling, partial curve, poor fit]; that for `CN(C)c1nc(Cl)cc(N2CCOCC2)n1`, 16.4 µM [rising, single point].

Turning to `O=C(c1ccccc1)N1N=C(c2ccccc2)CC1(O)C(F)(F)F` (stereo not given), the AC50 under setting [1] is 2.82 µM [falling, full curve, poor fit]. With `O=C(OCc1ccccc1F)c1cnc(Cl)c(Cl)c1`, the half-maximal activity concentration (AC50) under setting [1] was 3.55 µM [rising, full curve]. The same measure, in the same setting: then `Cc1ccc(Oc2ccccc2)c(NC=O)c1`, with 12.6 µM [rising, partial curve, poor fit]; and `COc1ccc(C2(c3ccc(OC)cc3)NC(=O)N(CC(=O)Nc3ccc(C(N)=O)cc3)C2=O)cc1`, with 6.31 µM [falling, single point]; and `C=CCN(c1ccccc1)S(=O)(=O)c1cccc(C(=O)NCC(c2ccc(F)cc2)N2CCOCC2)c1` (stereo not given), with 16.4 µM [falling, partial curve]. Same read-out and setting: then `O=C(CSc1nnc(CSc2nc3ccccc3s2)o1)NC1CCCCC1`, with 3.16 µM [rising, partial curve].

With `CCOC(=O)c1cc(-c2ccc(OC)cc2)n(CCC(=O)Nc2ccc(OC)cc2OC)c1C`, under setting [1], the concentration at half-maximal activity (AC50) is 35.5 µM [rising, single point]. Take `CCOC(=O)c1nn(-c2ccc([N+](=O)[O-])cc2)cc1O`: the concentration at half-maximal activity (AC50) under setting [1] is 4.47 µM [rising, single point]. Still for that read-out and setting: the result for `O=C1N[C@H](Cc2ccccc2)COC(=O)[C@@H](Cc2ccc(F)cc2)C/C=C\C[C@H]1CC(=O)N(CCO)Cc1ccccc1` reads 14.6 µM [falling, single point]; that for `COc1ccc2nc(NC(=O)c3ccccc3C(=O)O)sc2c1`, 3.98 µM [falling, partial curve].

In the case of `O=C1CC(c2ccccc2)CC(O)=C1C=NC1CCCC1` (stereo not given), the AC50 under setting [1] was 20 µM [falling, partial curve, poor fit]. Still for that read-out and setting: then `O=C(Nc1nnc2n1CCS2)c1ccccc1`, with 1.26 µM [rising, full curve, poor fit]. On the same count and under the same terms, then `O=C1c2cccc3cccc(c23)C(=O)N1OS(=O)(=O)c1ccccc1`, with 11.6 µM [rising, partial curve, poor fit]. Consider `Cc1ccc(C2CC2/C(=N/O)c2ccc(F)cc2)cc1` (stereo not given), for which the AC50 under setting [1] is 1.41 µM [rising, full curve, poor fit]. With `COC(=O)c1ccc2c(=O)n(CCCCCC(=O)NC(C)C)c(=O)[nH]c2c1`, the AC50 under setting [2] was 1.26 µM [rising, full curve, poor fit]. In the case of `Nc1ccnc(Oc2ccc(F)cc2)c1`, the AC50 under setting [1] was 2.31 µM [rising, partial curve, poor fit].

In the case of `COc1cc(CNCCc2ccccc2)cc(Cl)c1OCc1ccccc1`, the half-maximal activity concentration (AC50) reads like this: under setting [1], 22.4 µM [falling, single point]; under setting [2], 28.2 µM [rising, single point].

The values are drawn from PubChem BioAssay AID493014 (National Center for Advancing Translational Sciences (NCATS), 2011).
